No constants are given. Whether binding was seen depends on the method and setting. Some results given as binding are weak or reduced against the parent protein; the word gives no strength.
How the values were obtained:
[1] = target: M2 protein of influenza A/Puerto Rico/8/34 (H1N1) on cells (influenza A virus A/Puerto Rico/8/34 (H1N1)) (UniProt P06821); assay: FACS on infected MDCK cells
[2] = target: M2 protein of influenza A/Puerto Rico/8/34 (H1N1) on cells (influenza A virus A/Puerto Rico/8/34 (H1N1)) (UniProt P06821); assay: FMAT on PR8-infected MDCK cells
[3] = target: M2 protein on influenza A/Puerto Rico/8/34 (H1N1) virus particles (influenza A virus A/Puerto Rico/8/34 (H1N1)) (UniProt P06821); assay: ELISA on purified virus (FIG. 14a)
[4] = target: M2 protein on influenza A/Puerto Rico/8/34 (H1N1) virus particles (influenza A virus A/Puerto Rico/8/34 (H1N1)) (UniProt P06821); assay: ELISA on PR8 virus, crude supernatants
[5] = target: M2 protein on influenza A/Puerto Rico/8/34 (H1N1) virus particles (influenza A virus A/Puerto Rico/8/34 (H1N1)) (UniProt P06821); assay: ELISA on PR8 virus, crude supernatant
[6] = target: M2 protein of influenza A/Puerto Rico/8/34 (H1N1) on cells (influenza A virus A/Puerto Rico/8/34 (H1N1)) (UniProt P06821); assay: FACS, transfected 293 cells, 1 µg/mL
[7] = target: M2 protein on influenza A/Puerto Rico/8/34 (H1N1) virus particles (influenza A virus A/Puerto Rico/8/34 (H1N1)) (UniProt P06821); assay: ELISA on influenza virus, crude supernatants
[8] = target: M2 protein on influenza A/Puerto Rico/8/34 (H1N1) virus particles (influenza A virus A/Puerto Rico/8/34 (H1N1)) (UniProt P06821); assay: ELISA on purified A/Puerto Rico/8/34 virus
[9] = target: M2 protein of influenza A/Puerto Rico/8/34 (H1N1) on cells (influenza A virus A/Puerto Rico/8/34 (H1N1)) (UniProt P06821); assay: FACS on MDCK cells infected with A/Puerto Rico/8/34
[10] = target: M2 protein of influenza A/Puerto Rico/8/34 (H1N1) on cells (influenza A virus A/Puerto Rico/8/34 (H1N1)) (UniProt P06821); assay: FACS on transfected 293 cells and on infected MDCK cells
[11] = target: M2 protein of influenza A/Puerto Rico/8/34 (H1N1) on cells (influenza A virus A/Puerto Rico/8/34 (H1N1)) (UniProt P06821); assay: FACS, MDCK cells infected with A/Puerto Rico/8/34
[12] = target: M2 protein on influenza A/Puerto Rico/8/34 (H1N1) virus particles (influenza A virus A/Puerto Rico/8/34 (H1N1)) (UniProt P06821); assay: ELISA, purified A/Puerto Rico/8/34 virus coated at 10 µg/ml
[13] = target: M2 protein of influenza A/Puerto Rico/8/34 (H1N1) on cells (influenza A virus A/Puerto Rico/8/34 (H1N1)) (UniProt P06821); assay: FACS, transfected HEK293, 1 µg/ml [D00006 FIG. 3C-1]
[14] = target: M2 protein of influenza A/Puerto Rico/8/34 (H1N1) on cells (influenza A virus A/Puerto Rico/8/34 (H1N1)) (UniProt P06821); assay: FMAT images, MDCK cells infected with A/PR/8, crude supernatant
[15] = target: M2 protein of influenza A/Puerto Rico/8/34 (H1N1) on cells (influenza A virus A/Puerto Rico/8/34 (H1N1)) (UniProt P06821); assay: FMAT on MDCK cells infected with A/PR/8/32 (so in the source), crude supernatant
[16] = target: M2 protein on influenza A/Puerto Rico/8/34 (H1N1) virus particles (influenza A virus A/Puerto Rico/8/34 (H1N1)) (UniProt P06821); assay: ELISA on A/PR/8 virus, normalised to 8i10 at 10 µg/ml [D00002 FIG. 2B]

By UniProt entry, the sequences of proteins in these tests, tags left out.
UniProt P06821: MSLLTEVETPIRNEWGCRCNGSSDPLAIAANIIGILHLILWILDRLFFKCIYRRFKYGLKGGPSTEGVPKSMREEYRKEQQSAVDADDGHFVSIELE

Measured: binding

B1: 23K12 (antibody, V domains shown)
VH: EVQLVESGGGLVQPGGSLRISCAASGFTVSSNYMSWVRQAPGKGLEWVSVIYSGGSTYYADSVKGRFSFSRDNSKNTVFLQMNSLRAEDTAVYYCARCLSRMRGYGLDVWGQGTTVTVS
VL: DIQMTQSPSSLSASVGDRVTITCRTSQSISSYLNWYQQKPGKAPKLLIYAASSLQSGVPSRFSGSGSGTDFTLTISGLQPEDFATYYCQQSYSMPAFGQGTKLEIK
binds: all assays above

From US20120315277A1, “Compositions and Methods for the Therapy and Diagnosis of Influenza” (priority 2011, published 2012)
